Data from publication PMC3621835.

Protein sequences, listed by entry. Tags and fused reporters are not part of them. Lines headed by an entry give the natural chain unless they say otherwise; changes in a name come on top. Residues count along the entry.
UniProt P15253: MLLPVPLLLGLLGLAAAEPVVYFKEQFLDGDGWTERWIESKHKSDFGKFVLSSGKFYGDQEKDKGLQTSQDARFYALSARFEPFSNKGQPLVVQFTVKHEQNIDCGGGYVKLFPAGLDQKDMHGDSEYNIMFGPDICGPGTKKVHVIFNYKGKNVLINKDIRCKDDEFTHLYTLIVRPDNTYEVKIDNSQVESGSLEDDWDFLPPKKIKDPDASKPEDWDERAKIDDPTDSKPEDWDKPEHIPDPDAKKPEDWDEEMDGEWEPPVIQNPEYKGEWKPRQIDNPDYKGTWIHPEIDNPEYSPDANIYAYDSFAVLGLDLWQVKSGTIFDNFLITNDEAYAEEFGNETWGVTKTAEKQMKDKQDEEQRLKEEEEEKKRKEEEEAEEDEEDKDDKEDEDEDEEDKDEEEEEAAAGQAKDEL
UniProt Q92542, residues 34-709: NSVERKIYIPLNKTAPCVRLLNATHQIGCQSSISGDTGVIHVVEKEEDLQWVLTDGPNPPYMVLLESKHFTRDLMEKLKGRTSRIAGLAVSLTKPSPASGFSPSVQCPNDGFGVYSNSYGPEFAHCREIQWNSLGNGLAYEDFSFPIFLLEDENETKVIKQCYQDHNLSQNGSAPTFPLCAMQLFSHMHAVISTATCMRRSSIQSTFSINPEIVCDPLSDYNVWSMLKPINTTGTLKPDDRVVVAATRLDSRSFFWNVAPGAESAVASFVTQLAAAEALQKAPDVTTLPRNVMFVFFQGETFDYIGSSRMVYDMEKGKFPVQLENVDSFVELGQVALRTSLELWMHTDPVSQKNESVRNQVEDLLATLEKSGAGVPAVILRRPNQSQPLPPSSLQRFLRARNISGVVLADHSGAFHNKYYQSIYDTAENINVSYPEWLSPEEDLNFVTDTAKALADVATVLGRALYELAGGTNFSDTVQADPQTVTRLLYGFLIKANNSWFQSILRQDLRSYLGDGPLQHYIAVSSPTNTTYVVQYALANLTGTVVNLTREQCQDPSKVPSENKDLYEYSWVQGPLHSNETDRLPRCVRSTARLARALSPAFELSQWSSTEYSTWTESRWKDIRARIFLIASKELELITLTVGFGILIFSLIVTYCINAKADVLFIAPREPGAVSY

Target: GST fusion protein comprising the calreticulin C-domain (amino acid 330–401) (rabbit) (UniProt P15253)
Experiment: pull-down; GST or GST-calreticulin fusion proteins on glutathione-agarose beads with solubilized membranes of HEK cells overexpressing presenilin, overnight at 4°C; Western blot with presenilin antibody 2953 or nicastrin antibody; only the target purified

binding: binds
Substance: nicastrin (HEK cells overexpressing presenilin) (from UniProt Q92542 34-709)

No constants are given. Whether binding was seen depends on the method and setting. Binding seen in cells or lysates may run through a third protein. Binding can be weak; no strength is given.
